# Among all 31,000 sequences or so, about 1,400 (4.5%) were called active.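 The calls were made as follows: active = median seed-adjusted z-score above 1 or below -1; inactive = the rest.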 This is one part of the list.
# Assay: Novel Modifiers of Survival Motor Neuron (SMN) Protein: Gene Identification via Genome-wide siRNA Screen;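 also: luminescence tracks full-length SMN protein made from the SMN2 reporter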
# Conditions: HEK293T SMN2-luciferase reporter, siRNA knockdown, 72 h; actives lie on both sides
# Summary of the method: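 Genome-wide siRNA screen (10418 genes, 3 siRNAs each, 1 pmol per well) by reverse transfection in HEK293T cells stably carrying an SMN2-luciferase reporter; luminescence after 72 hours, normalized to negative-control siRNA, log10-transformed, MAD-scored.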
row,Sequence,median seed-adjusted z-score
1,GCAUUUCGUGGGAUGGUCUTT against PEBP1,inactive: 0.641
2,CCUGAUACGUGACAAAGCATT against KLRB1,inactive: -0.44
3,CCCUUGGUAUGGUACGCUUTT against SERPINB12,inactive: -0.525
4,CAGUUAAAGGUCAAGAUAATT against PI3,inactive: 0.493
5,UCCUUUUUGUGAUUUCUGUTT against UBE2C,inactive: 0
6,CAAGACUAUUUGUCUUUGATT against DHRS1,inactive: 0
7,CCAUCGGAGUGAUUGCCUATT against CAMK1D,inactive: -0.0629
8,GGAUCAACAGUGUCAUGGATT against MYO1G,inactive: -0.907
9,GAAGAUCGCUUAAAGGAGATT against MPP3,inactive: 0
10,GCUAUGAGGUUAUCAAGAATT against UGT2A1,inactive: 0.213
11,GGCACUUACUUGUAAUGCUTT against LGR5,inactive: 0
12,GACCUUGUAUUGAAGUUAATT against ACTG1,inactive: -0.227
13,GGAUCUCACUCUCCCAGUUTT against GABRR1,inactive: 0.286
14,GCAGAAUACCUGUUUCAAATT against TERF1,inactive: 0.0114
15,GCAUCAACUUUGUGCAUGATT against PLTP,active: 1.09
16,GAAUUACGAUCACAAAGUUTT against KRR1,inactive: -0.0353
17,CAUCAUUGCUUAAUCAACATT against ZNF267,inactive: 0.381
18,GGCUUAAUAUUCAAGCUGATT against CCL1,inactive: 0.537
19,GGAUUAUCUUGACAGUAUUTT against HSF2,inactive: -0.0228
20,GAAGGAAGGGUAAGGGAAATT against NFKBIL1,inactive: 0.282
21,GGGUUGCAGUUAACACUGUTT against MOBKL1A,inactive: 0.549
22,CCACUUUUGAGGACAGAGATT against CLCN4,inactive: 0
23,GAUCCAAUGUAAACGUGGATT against GRLF1,inactive: 0.0307

row,Sequence,median seed-adjusted z-score
1,GCAUAACUGUAGACUACAATT against ADAM32,active: 1.75
2,CGACUAACCCACGAAGUAATT against DLG2,inactive: 0.133
3,CCAGUACGGUGACAACUGUTT against CYP11B2,inactive: 0.459
4,GUGAGAAACCCAAUCCUUUTT against PAFAH1B2,inactive: 0.0991
5,CGACGACUGUCAAUGCCUUTT against PHEX,inactive: -0.0314
6,CUGUAAAUGUGAUUACUGUTT against ZNF18,inactive: -0.27
7,CAGUGGAAUCGAUCGUAUATT against KCNJ2,inactive: -0.0834
8,GGAUUAUUGCUCGGCUUUATT against GBP5,inactive: -0.194
9,GACCGAACCUCUGAAUUUATT against CMAS,inactive: -0.491
10,CAAGCACUAUCAGAUCAAUTT against PCSK7,inactive: 0
11,CAGUAUAAGUGCGAUUGUATT against PTGS2,inactive: -0.21
12,GGCUGAGGGUGAAUCAGGATT against ARHGEF4,inactive: 0.332
13,CCAUGAAUGAUACAACCGUTT against PRLR,inactive: 0.394
14,CCGGUUCUAUUUCAGCUAATT against LRIG1,inactive: 0.102
15,GGUUUAUUCGAGUCCGUGATT against LIG1,inactive: 0.722
16,GGAACAACUAAACCGCAUATT against SNAP23,inactive: 0.31
17,GGACAGCUUUUUCCGACCATT against BARHL2,inactive: -0.147
18,AACUCACUGCGGACCUUCATT against IGFALS,inactive: 0.0888
19,AGUUUGAGAUCGAGACAAATT against SCUBE1,inactive: 0.673
20,GCCACGAAAAUCAAUGAGATT against EDF1,inactive: 0.0783
21,GAGCACUACUUGUACAUGATT against GBF1,inactive: -0.162
22,GGAAUGUGACUACAACAAATT against S100A3,inactive: -0.176
23,CGGUAGCACUUGACCUUUUTT against AKT1,inactive: -0.288

row,Sequence,median seed-adjusted z-score
1,CAUUCAGCUUGUCACGUCATT against THOC4,active: -1.54
2,CAAGUCCUUUUAAUCCACATT against RUNX2,inactive: 0.335
3,AGAUCUAGUAUGAGCUUAATT against EARS2,inactive: 0.0463
4,GCACGAUUACUACUACCGATT against PNPLA1,inactive: 0.00692
5,AAAGACUACUAUAAAGCUUTT against ING3,inactive: 0.192
6,GGGCGAUUCUUUCCGCAAATT against TSHZ2,inactive: -0.361
7,GCAACUACGUUGACUUCUATT against CTNND2,inactive: -0.0491
8,AAACUGACUUUGAAGUAUUTT against PRKAB1,inactive: 0.536
9,AAGGGAGUAUAUUACCAAATT against GATAD1,inactive: 0.328
10,GGAUUUACUUGUCGACAAATT against ZFP91,inactive: 0.0597
11,GAAGUUAACUGAUUAUCGUTT against PRDX4,inactive: -0.188
12,CUAUCGAUGUAAACAAUGUTT against ZNF14,inactive: -0.0802
13,GGACAGACACGUCAGCAAATT against TMEM171,inactive: 0.278
14,GGACAAGACCUGUAGUAAUTT against ITGA4,inactive: 0
15,GGACUUGAGUGUUCCACUUTT against ZNF471,inactive: 0.364
16,CUACUGUGGGUGUCGCAUATT against UQCRFS1,active: -1.28
17,CCAGUGCUGAAUAUUCAAATT against CEPT1,inactive: 0.328
18,GAACAAUAAACGGCACUAUTT against ZNF787,inactive: -0.0628
19,GGUGUACUAUAUAAAAAGATT against BXDC1,inactive: 0.173
20,GGUUAAUAACUGCAUUGGATT against ZDHHC15,inactive: 0.548
21,GAAUGUAAUAGGCAGUUUATT against ZNF566,inactive: 0.0702
22,GGGACAACAUUGUGACCUATT against CDH9,inactive: -0.18
23,CCAAAUGAGUGUCACGAAUTT against ZNF490,inactive: 0.00954

# Shown bar-delimited: entries from further up
row | Sequence | median seed-adjusted z-score
19 | GGUGUACUAUAUAAAAAGATT against BXDC1 | inactive: 0.173
20 | GGUUAAUAACUGCAUUGGATT against ZDHHC15 | inactive: 0.548
21 | GAAUGUAAUAGGCAGUUUATT against ZNF566 | inactive: 0.0702
22 | GGGACAACAUUGUGACCUATT against CDH9 | inactive: -0.18
23 | CCAAAUGAGUGUCACGAAUTT against ZNF490 | inactive: 0.00954

# Source: PubChem BioAssay AID1347426 (Functional Genomics Laboratory (NCATS/FGL), 2020)
